Reference: patent US20210214447A1
No constants are given. Whether binding was seen depends on the method and setting. Some entries that bind do so weakly or less than the wild type.

Sequences of proteins named here, by UniProt entry; tags and fusion partners are left off. Residues count along the entry.
UniProt P30530, residues 26-894: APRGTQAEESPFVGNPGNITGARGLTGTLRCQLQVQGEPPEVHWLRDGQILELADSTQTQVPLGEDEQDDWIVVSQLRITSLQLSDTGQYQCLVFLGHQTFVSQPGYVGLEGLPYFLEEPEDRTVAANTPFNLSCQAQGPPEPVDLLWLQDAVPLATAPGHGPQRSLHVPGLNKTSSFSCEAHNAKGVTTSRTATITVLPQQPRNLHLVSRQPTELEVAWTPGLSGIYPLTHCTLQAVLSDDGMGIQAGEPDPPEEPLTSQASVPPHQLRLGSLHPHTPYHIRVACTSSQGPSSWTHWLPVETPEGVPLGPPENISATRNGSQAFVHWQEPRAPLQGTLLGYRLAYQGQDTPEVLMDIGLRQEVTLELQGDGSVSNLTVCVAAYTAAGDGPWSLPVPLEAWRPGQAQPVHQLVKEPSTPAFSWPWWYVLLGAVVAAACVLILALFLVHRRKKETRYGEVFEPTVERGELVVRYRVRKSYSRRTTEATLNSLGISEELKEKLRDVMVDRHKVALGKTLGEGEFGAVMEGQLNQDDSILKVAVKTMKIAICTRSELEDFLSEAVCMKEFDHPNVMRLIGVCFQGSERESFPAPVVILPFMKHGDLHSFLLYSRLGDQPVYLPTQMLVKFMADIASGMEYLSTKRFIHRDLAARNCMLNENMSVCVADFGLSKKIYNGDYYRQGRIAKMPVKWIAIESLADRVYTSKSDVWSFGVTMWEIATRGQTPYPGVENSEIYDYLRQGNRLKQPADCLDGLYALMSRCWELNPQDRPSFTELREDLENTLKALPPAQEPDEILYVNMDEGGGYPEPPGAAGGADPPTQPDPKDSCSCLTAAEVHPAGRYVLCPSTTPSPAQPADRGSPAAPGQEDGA

Assays:
[1] = biological target: extracellular domain of human AXL protein (AXL-ECD) (human) (UniProt P30530); test: ELISA, plate-coated AXL-ECD
[2] = biological target: human AXL on the surface of tumor cells (human) (UniProt P30530); test: FACS on NCI-H1299 cells
[3] = biological target: human AXL on the surface of tumor cells (human) (UniProt P30530); test: FACS on MDA-MB-231 cells
[4] = biological target: human AXL on the surface of tumor cells (human) (UniProt P30530); test: summary of ELISA and FACS comparison with AXL107

Measured: binding

B1: mAb001c (antibody, V domains shown)
VH: AVQLQESGPSLVKPSQTLSLTCSVTGDSITSGYWSWIRKFPGNKLESMGYMTYSGATYYNPSLKSRISITRDTSKNQYYLQLNSVTPEDTATYYCARGGNSYFFDYWGQGTTLTVSS
VL: DIQMTQSPASLSVSVGETVTITCRASENIYSNLAWYQLKQGKSPHLLVYAATNLADGVPSRFSGSGSGTQYSLKIISLQSEDFGTYYCQHFWGTPLTFGAGTKLELK
binds: [1] | [2] | [3]

B2: mAb005c (antibody, V domains shown)
VH: QVQLQQSGPELVKPGASVKISCKASGYSFTSYYIHWVQQRPGQGLEWIGWIYPGSDNTKYNEKFKDKATLTADTSSGTAYMQLSSLTSDDSAVFYCARNYYDYDGGTWFPYWGQGTLVTVSA
VL: DIQMTQTTSSLSASLGDRVTISCRASQDINYYLNWYQQKPDGTVKLLIYYTSRLHSRVPSRFSGSGSGTDYSLTISNLEQEDIATYFCQQGNTLPWTFGGGTKLEIK
binds: [1] | [4] | [2] | [3]
